Drawing on publication doi:10.1101/2025.04.16.649111, this text covers binding for 1 molecule.

Amino acid sequences for entries named in this document (tags omitted).
UniProt P21707, whole entry: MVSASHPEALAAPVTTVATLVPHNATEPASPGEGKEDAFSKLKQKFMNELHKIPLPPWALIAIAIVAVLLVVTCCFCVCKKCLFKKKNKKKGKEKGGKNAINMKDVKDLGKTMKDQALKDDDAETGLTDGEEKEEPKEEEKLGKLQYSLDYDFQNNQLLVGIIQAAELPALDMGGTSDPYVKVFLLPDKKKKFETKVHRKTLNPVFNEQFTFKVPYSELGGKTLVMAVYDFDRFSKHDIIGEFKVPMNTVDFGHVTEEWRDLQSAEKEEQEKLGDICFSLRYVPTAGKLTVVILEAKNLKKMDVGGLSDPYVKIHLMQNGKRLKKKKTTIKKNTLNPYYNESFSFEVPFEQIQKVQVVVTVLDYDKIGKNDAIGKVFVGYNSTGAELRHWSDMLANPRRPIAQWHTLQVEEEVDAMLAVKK

These are yes or no findings as the source states them, for the method shown. Binding seen in cells or lysates may run through a third protein. Some binding calls cover weakened binding; strength is not graded here.

The target of the test is endogenous Synaptotagmin 1 of primary hippocampal neurons (rat) (rat (endogenous in hippocampal neurons)) (UniProt P21707). Put plainly: proximity ligation.

B1: ciliary neurotrophic factor receptor (Cntfr) (receptor, UniProt Q08406 23-342)
chain: QKHSPQEAPHVQYERLGTDVTLPCGTASWDAAVTWRVNGTDLAPDLLNGSQLILRSLELGHSGLYACFHRDSWHLRHQVLLHVGLPPREPVLSCRSNTYPKGFYCSWHLSAPTYIPNTFNVTVLHGSKMMVCEKDPALKNRCHIRYMHLFSTIKYKVSISVSNALGHNTTAITFDEFTIVKPDPPENVVARPVPSNPRRLEVTWQTPSTWPDPESFPLKFFLRYRPLILDQWQHVELSNGTAHTITDAYAGKEYIIQVAAKDNEIGTWSDWSVAAHATPWTEEPRHLTTEAQAPETTTSTTSSLAPPPTTKICDPGELSS
As to B1, the binding entry is recorded as “binds”.
